Measured values taken from the supplement of paper PMC10849652.
The list shows a part of the results.

Amino acid sequences for entries named in this document (tags omitted). A change or cut given only in a name is not applied to a line headed by its entry.
UniProt Q8N6G5: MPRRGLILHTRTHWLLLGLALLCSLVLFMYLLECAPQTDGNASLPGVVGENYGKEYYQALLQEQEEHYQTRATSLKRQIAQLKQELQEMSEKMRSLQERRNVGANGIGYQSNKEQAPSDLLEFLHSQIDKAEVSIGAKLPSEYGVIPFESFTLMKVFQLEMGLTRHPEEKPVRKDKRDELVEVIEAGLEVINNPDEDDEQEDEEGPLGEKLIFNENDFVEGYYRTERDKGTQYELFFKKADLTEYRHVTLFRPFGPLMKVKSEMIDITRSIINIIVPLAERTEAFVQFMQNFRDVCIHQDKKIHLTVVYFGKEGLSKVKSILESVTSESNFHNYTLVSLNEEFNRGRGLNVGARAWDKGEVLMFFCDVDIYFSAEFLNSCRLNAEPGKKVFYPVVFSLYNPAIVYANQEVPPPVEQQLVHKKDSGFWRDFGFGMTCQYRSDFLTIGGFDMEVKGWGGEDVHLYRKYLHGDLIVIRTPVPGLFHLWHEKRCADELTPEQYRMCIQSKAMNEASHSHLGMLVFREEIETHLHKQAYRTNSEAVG
UniProt Q70SY1: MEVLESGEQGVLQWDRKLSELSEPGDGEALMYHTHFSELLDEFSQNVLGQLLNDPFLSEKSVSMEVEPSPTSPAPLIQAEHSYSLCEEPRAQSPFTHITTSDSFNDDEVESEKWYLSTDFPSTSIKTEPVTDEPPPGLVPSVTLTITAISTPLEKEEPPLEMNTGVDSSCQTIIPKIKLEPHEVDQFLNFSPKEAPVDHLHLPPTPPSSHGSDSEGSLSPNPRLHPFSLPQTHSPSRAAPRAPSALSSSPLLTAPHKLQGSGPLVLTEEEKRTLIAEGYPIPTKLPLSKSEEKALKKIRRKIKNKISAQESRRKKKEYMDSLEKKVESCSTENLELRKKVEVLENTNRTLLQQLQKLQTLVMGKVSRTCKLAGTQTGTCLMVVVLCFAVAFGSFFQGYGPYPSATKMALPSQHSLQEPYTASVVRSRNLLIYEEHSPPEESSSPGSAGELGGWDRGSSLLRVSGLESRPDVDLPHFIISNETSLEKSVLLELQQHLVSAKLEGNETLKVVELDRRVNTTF
UniProt Q9NXE8: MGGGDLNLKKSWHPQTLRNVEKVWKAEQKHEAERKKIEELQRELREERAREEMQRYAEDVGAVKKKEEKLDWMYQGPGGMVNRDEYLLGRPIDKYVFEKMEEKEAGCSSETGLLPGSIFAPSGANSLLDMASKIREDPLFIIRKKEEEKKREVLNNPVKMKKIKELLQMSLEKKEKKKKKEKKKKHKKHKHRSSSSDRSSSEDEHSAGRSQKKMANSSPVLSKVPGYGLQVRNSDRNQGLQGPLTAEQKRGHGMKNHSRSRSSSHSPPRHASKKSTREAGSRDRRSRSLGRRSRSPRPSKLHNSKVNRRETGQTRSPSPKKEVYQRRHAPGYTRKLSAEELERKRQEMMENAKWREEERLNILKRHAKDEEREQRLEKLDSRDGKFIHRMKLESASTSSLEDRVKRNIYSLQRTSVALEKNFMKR
UniProt Q16619: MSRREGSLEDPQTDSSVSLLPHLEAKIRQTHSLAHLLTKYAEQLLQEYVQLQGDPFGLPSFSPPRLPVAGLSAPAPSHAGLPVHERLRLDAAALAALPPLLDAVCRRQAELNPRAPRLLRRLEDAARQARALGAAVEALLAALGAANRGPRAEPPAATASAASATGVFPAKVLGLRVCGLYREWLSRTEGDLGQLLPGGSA
UniProt Q9UJA2: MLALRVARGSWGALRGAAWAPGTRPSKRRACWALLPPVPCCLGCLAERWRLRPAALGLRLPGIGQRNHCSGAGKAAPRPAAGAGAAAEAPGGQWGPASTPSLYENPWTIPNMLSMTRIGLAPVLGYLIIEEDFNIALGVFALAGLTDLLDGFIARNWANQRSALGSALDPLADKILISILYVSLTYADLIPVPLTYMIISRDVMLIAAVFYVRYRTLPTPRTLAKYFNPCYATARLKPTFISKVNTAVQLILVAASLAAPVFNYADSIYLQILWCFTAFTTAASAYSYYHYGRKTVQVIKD
UniProt P49447: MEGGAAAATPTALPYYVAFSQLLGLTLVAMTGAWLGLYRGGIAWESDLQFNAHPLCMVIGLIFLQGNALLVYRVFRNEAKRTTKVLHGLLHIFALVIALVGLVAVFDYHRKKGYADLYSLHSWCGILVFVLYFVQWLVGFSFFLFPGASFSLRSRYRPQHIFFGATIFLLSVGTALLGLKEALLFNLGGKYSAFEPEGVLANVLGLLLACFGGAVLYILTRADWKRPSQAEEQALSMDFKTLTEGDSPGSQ

Key:
Assay in all cases: log2 fold change, soluble protein after heating vs DMSO (PISA); higher = thermal stabilisation; K562 lysate, 10 uM; active = over 0.2 and 3.5 SD of the protein, either way, in both replicates (recomputed)
[1] = compound: CS(=O)(=O)CCNCc1ccc(-c2ccc3ncnc(Nc4ccc(OCc5cccc(F)c5)c(Cl)c4)c3c2)o1 [lapatinib]
Summary of the method: (§1)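 Quantification was by TMTpro 16plex LC-MS/MS with equalised channel sums, applied to the supernatant after 21,000xg for 90 min. Samples were crude K562 extract at 1 mg/mL protein in PBS pH 7.4 with 1 mM MgCl2, treated with 10 μM compound for 30 min, heated for 3 min across 48°C-58°C, pooled and brought to 0.5% NP-40 at 4°C. Values are log-two fold changes in thermal stability relative to solvent controls, from duplicates.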

[2] = compound: C[C@@H](Oc1cc(-c2cnn(C3CCNCC3)c2)cnc1N)c1c(Cl)ccc(F)c1Cl [crizotinib]
Summary of the method: as §1

[3] = compound: C[C@H](Nc1ncnc2nc[nH]c12)c1cc2cccc(Cl)c2c(=O)n1-c1ccccc1 [duvelisib]
Summary of the method: as §1

[4] = compound: Cc1ccc(-n2nc(C(C)(C)C)cc2NC(=O)Nc2ccc(OCCN3CCOCC3)c3ccccc23)cc1 [doramapimod]
Summary of the method: as §1

[5] = compound: Cc1nc(Nc2ncc(C(=O)Nc3c(C)cccc3Cl)s2)cc(N2CCN(CCO)CC2)n1 [dasatinib]
Summary of the method: as §1

[6] = compound: Cn1cc(-c2ccc3c(c2)CCN3C(=O)Cc2cccc(C(F)(F)F)c2)c2c(N)ncnc21
Summary of the method: as §1

[7] = compound: Cn1cc(CNCC2CCN(c3ncc(C(=O)NO)cn3)CC2)c2ccccc21 [quisinostat]
Summary of the method: as §1

[8] = compound: NC(=O)Nc1cc(-c2cccc(F)c2)sc1C(=O)N[C@H]1CCCNC1
Summary of the method: as §1

[9] = compound: NC(=O)c1cnc(N[C@@H]2CCCC[C@@H]2N)nc1Nc1cccc(-n2nccn2)c1
Summary of the method: as §1

[10] = compound: NC1(c2ccc(-c3nc4ccn5c(=O)[nH]nc5c4cc3-c3ccccc3)cc2)CCC1
Summary of the method: as §1

[11] = compound: CS(=O)(=O)N1CCN(Cc2cc3nc(-c4cccc5[nH]ncc45)nc(N4CCOCC4)c3s2)CC1 [pictilisib]
Summary of the method: as §1

[12] = compound: C[C@H](C1=CC=C(C=C1)C(=O)NC2=C3C=CNC3=NC=C2)N
Summary of the method: as §1

[13] = compound: Cc1cc(Nc2cc(CN3CCOCC3)c3nc(C)c(Cc4ccc(Cl)cc4F)n3n2)n[nH]1 [gandotinib]
Summary of the method: as §1

[14] = compound: Cc1cc(Nc2cc(N3CCN(C)CC3)nc(Sc3ccc(NC(=O)C4CC4)cc3)n2)n[nH]1 [tozasertib]
Summary of the method: as §1

[15] = compound: Cc1ccc(NC(=O)c2ccc(CN3CC[C@H](N(C)C)C3)c(C(F)(F)F)c2)cc1Nc1nccc(-c2cncnc2)n1 [bafetinib]
Summary of the method: as §1

[16] = compound: Cc1cccc(CC(=O)N2CCc3c2ccc(-c2cn(C)c4ncnc(N)c24)c3F)n1
Summary of the method: as §1

[17] = compound: Cc1cn(-c2cc(NC(=O)c3ccc(C)c(Nc4nccc(-c5cccnc5)n4)c3)cc(C(F)(F)F)c2)cn1 [nilotinib]
Summary of the method: as §1

[18] = compound: Cc1nc(Nc2n[nH]c3c2CN(C(=O)N[C@H](CN(C)C)c2ccccc2)C3(C)C)c2sccc2n1
Summary of the method: as §1

[19] = compound: Cc1ncc(-c2ccnc(Nc3ccc(S(C)(=O)=O)cc3)n2)n1C(C)C
Summary of the method: as §1

[20] = compound: Cn1cncc1[C@@](N)(c1ccc(Cl)cc1)c1ccc2c(c1)c(-c1cccc(Cl)c1)cc(=O)n2C [tipifarnib]
Summary of the method: as §1

Measured: log2 fold change

CSGALNACT2 (UniProt Q8N6G5)
inactive: [1] 0.179 | [2] -0.112 | [3] -0.043 | [4] 0.069 | [5] -0.094 | [6] 0.013 | [7] -0.216 | [8] 0.065 | [9] 0.005 | [10] -0.1

CREB3L2 (UniProt Q70SY1)
inactive: [1] 0.003 | [11] -0.02 | [12] -0.151 | [3] -0.066 | [13] 0.337 | [14] 0.071 | [15] 0.011 | [16] 0.225 | [17] 0.192 | [18] -0.088 | [5] 0.119 | [19] 0.056 | [6] -0.054 | [20] -0.115 | [9] -0.042 | [10] -0.001

CWC25 (UniProt Q9NXE8)
inactive: [1] -0.035 | [11] 0.104 | [2] 0.225 | [12] -0.039 | [13] 0.282 | [14] 0.063 | [4] 0.536 | [15] -0.026 | [16] 0.169 | [17] -0.031 | [18] -0.084 | [19] -0.007 | [7] -0.137 | [20] -0.124 | [8] 0.086 | [9] 0.006

CTF1 (UniProt Q16619)
inactive: [1] 0.075 | [2] -0.105 | [12] -0.069 | [3] 0.015 | [13] 0.026 | [14] 0.029 | [4] -0.138 | [16] 0.018 | [5] -0.09 | [6] -0.071 | [7] 0.157 | [8] 0.024 | [9] 0.077 | [10] -0.064

CRLS1 (UniProt Q9UJA2)
inactive: [1] -0.003 | [11] -0.107 | [2] -0.086 | [12] 0.084 | [13] -0.105 | [4] -0.062 | [15] -0.437 | [16] -0.176 | [17] 0.1 | [18] -0.096 | [19] -0.143 | [7] -0.122 | [20] -0.01 | [8] 0.066 | [9] -0.018 | [10] -0.067

CYB561 (UniProt P49447)
inactive: [1] 0.007 | [11] -0.075 | [2] 0.005 | [12] -0.247 | [3] 0.095 | [13] 0.159 | [14] -0.082 | [4] 0.113 | [15] 0.157 | [16] 0.161 | [5] 0.028 | [6] -0.004 | [7] -0.184 | [8] 0.141 | [9] 0.039 | [10] 0.066
